Patent publication US9598383B2, “Reactive oxygen species-based prodrugs” (The Regents of the University of California, priority 2013, dated 2017)
Some results were stated once for a whole list of compounds, not compound by compound. Some ranges recur; such a range may be that of the whole group of compounds.

Assays:
[1] = H2O2-triggered deprotection of model compounds (conversion to acid), analytical HPLC; type: physicochemical; conditions: excess of H2O2 (27 equiv) in buffer, after 4 h of incubation
Protocol: To be effective prodrugs must have good water solubility and be rapidly converted to the active drug under the desired stimulus. These two aspects were evaluated first in model systems. […] An authentic HPLC trace of each was obtained and was then compared to a trace obtained after 1 h and 4 h of incubation. […] The stability of each compound was tested at physiological pH (100 mM TRIS-HCl, pH 7.2) as well as in the presence of glutathione (9 equiv).
Injections consisted of 100 μL, of a 50 μM.

[2] = Stability of model compounds in simulated physiological conditions, analytical HPLC; type: physicochemical; conditions: for stability at physiological pH: 100 mM TRIS-HCl, pH 7.2; for stability in the presence of glutathione: glutathione (9 equiv)

Structure (SMILES)	deprotection, conversion to the acid [1]	stability at physiological pH [2]	stability in the presence of glutathione [2]
O=C1OCCN1C(=O)c1ccccc1 [Compound 1, 3-benzoyloxazolidin-2-one]	1-67%	> 85%	> 85%
O=C1SCCN1C(=O)c1ccccc1 [Compound 2, 3-benzoylthiazolidin-2-one]	1-67%	> 85%	> 85%
O=C(Cc1ccccc1)N1CCOC1=O [Compound 5, 3-(2-phenylacetyl)oxazolidin-2-one]	1-67%	> 85%	> 85%
O=C(Cc1ccccc1)N1CCSC1=O [Compound 6, 3-(2-phenylacetyl)thiazolidin-2-one]	1-67%	> 85%	> 85%
